The values that follow come from patent CN113173994A.

For assay [1], the target named is T1, 重组AFP抗原(爱必信生物，货号Abt-P-208，GenbankID:174) (UniProt P02771).
T1 sequence (looked up): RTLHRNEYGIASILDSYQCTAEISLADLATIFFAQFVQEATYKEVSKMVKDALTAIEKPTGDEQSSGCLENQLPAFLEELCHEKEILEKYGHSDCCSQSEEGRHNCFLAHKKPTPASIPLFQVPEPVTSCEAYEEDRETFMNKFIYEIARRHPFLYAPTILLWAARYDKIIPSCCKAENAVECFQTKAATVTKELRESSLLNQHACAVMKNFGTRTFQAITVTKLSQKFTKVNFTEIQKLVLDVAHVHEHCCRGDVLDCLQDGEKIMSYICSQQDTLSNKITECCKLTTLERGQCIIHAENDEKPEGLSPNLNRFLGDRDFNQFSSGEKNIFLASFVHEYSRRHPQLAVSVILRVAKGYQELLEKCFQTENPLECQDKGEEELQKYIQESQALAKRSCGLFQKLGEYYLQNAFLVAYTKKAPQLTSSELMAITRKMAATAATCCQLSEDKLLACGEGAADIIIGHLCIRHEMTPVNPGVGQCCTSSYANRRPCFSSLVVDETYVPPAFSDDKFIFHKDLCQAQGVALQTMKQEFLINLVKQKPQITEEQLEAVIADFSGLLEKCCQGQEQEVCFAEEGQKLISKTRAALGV
The assay is described as follows: ELISA additivity test on coated AFP. In general terms: In an ELISA, binding on a coated surface is turned into a signal by an enzyme label.

The target of assay [2] is T1, 重组AFP抗原(爱必信生物，货号Abt-P-208，GenbankID:174). The assay is described as follows: Biacore sequential injection on immobilised AFP. A general note: SPR reads the build-up and loss of mass on a sensor chip optically.

No constants are given. Whether binding was seen depends on the method and setting. Some binding calls cover weakened binding; strength is not graded here.

B1: 抗AFP纳米抗体1A7 (VHH)
VHH: QVQLQESGGGLVQAGGSLRLSCAASESIFSFAAMGWYRQAPGKQRELVARITGGDNINYADSVKGRFTISKDNAKNTVYLQMNSLKPEDTAVYYCNGEGYGSSWFDDGKNYWGKGTQVTVSS
Consider B1, for which the binding entry in assay [1] and in assay [2] was “binds” each time.

B2: 纳米抗体2F5 (VHH)
VHH: QVQLQESGGGVVQAGGSLRLTCAASESIFSFAAMGWYRQAPGKQRELVARITGGDNINYADSVKGRFTISKDNAKNTVYLQMNSLKPEDTAVYYCNGEGYGSSWFDDGKNYWGKGTQVTVSS
For the molecule B2, the binding result in assay [1] and in assay [2] was “binds” in each case.
